No constants are given. Whether binding was seen depends on the method and setting. Binding seen in cells or lysates may run through a third protein. Binding calls can cover weak binding; strength is not graded here. Tags and fused reporters may be left off the sequences shown.
B1: Arabidopsis thaliana 14-3-3λ (GRF6) fused to a YFP fragment (BiFC) (protein, UniProt P48349 1-248)
chain: MAATLGRDQYVYMAKLAEQAERYEEMVQFMEQLVTGATPAEELTVEERNLLSVAYKNVIGSLRAAWRIVSSIEQKEESRKNDEHVSLVKDYRSKVESELSSVCSGILKLLDSHLIPSAGASESKVFYLKMKGDYHRYMAEFKSGDERKTAAEDTMLAYKAAQDIAAADMAPTHPIRLGLALNFSVFYYEILNSSDKACNMAKQAFEEAIAELDTLGEESYKDSTLIMQLLRDNLTLWTSDMQEQMDEA
B2: MPK11 fused to YFP (protein, UniProt Q9LMM5 1-369)
chain: MSIEKPFFGDDSNRGVSINGGRYVQYNVYGNLFEVSKKYVPPLRPIGRGASGIVCAAWNSETGEEVAIKKIGNAFGNIIDAKRTLREIKLLKHMDHDNVIAIIDIIRPPQPDNFNDVHIVYELMDTDLHHIIRSNQPLTDDHSRFFLYQLLRGLKYVHSANVLHRDLKPSNLLLNANCDLKIGDFGLARTKSETDFMTEYVVTRWYRAPELLLNCSEYTAAIDIWSVGCILGEIMTREPLFPGRDYVQQLRLITELIGSPDDSSLGFLRSDNARRYVRQLPQYPRQNFAARFPNMSVNAVDLLQKMLVFDPNRRITVDEALCHPYLAPLHEYNEEPVCVRPFHFDFEQPSLTEENIKELIYRESVKFNP
B3: GRF6 tagged with the hemagglutinin (HA) epitope (protein, UniProt P48349 1-248)
chain: B1 chain

Columns and labels:
[1] = target: Arabidopsis thaliana MAP kinase MPK11 fused to a YFP fragment (BiFC) (Arabidopsis thaliana); test: split reporter; BiFC: YFP^N and YFP^C fusions transiently coexpressed in N. benthamiana leaves by agroinfiltration (with P19); confocal microscopy three days after infiltration; both reciprocal combinations
[2] = target: Arabidopsis thaliana DBP1 fused to a YFP fragment (BiFC) (Arabidopsis thaliana); test: as above
[3] = target: DBP1 fused to maltose binding protein (MaBP) (Arabidopsis thaliana); test: co-IP; fusion proteins transiently coexpressed in N. benthamiana leaves; cleared extracts in TBS with 5 mM DTT, protease and phosphatase inhibitors, incubated 2 h at 4°C with conjugated antibodies (anti-MaBP or anti-HA); washes TBS, TBS 0.5% Triton X-100, TBS 0.3 M NaCl 1% NP-40; Western blot of the immunoprecipitate

Binder | binding [1] | binding [2] | binding [3]
B1 | binds | binds | –
B2 | – | – | binds
B3 | – | – | binds
